Holding throughout (conditions): RNA concentration 10 µM; fragment concentration 200 µM; 293 K
The test system of one assay is SARS-CoV-2 3'-UTR RNA. Nature of the assay: NMR binding call after quantification (hit when 2 of 3 NMR criteria are met) (binary (1 = binding, 0 = not binding)); higher = binding.
The next assay deals with SARS-CoV-2 3_SL1 RNA. The description is as above.
Another assay concerns SARS-CoV-2 3_SL1+2 RNA. Described as above.
The subject of the next assay is SARS-CoV-2 3_SL2 RNA. Described as above.
For the next assay, the system named is SARS-CoV-2 3_SL3base RNA. The description is as above.
The next assay relates to SARS-CoV-2 3_s2m RNA. Described as above.
Another assay relates to SARS-CoV-2 5_SL5 RNA. Nature of the assay: T2 signal reduction relative to ligand without RNA (fraction); higher = stronger binding.
A further assay deals with SARS-CoV-2 5_SL8 RNA. The assay is described as above.
Assay [1] concerns SARS-CoV-2 frameshift pseudoknot (PK) RNA. Described as above.
For the next assay, the system named is SARS-CoV-2 5_SL6 RNA. The assay is described as above.
A further assay deals with SARS-CoV-2 5_SL7 RNA. The assay is described as above.
The next assay deals with SARS-CoV-2 5'-UTR RNA. The assay is described as above.
A further assay has as its system SARS-CoV-2 5_SL1234 RNA. The assay is described as above.
A further assay concerns SARS-CoV-2 5_SL4 RNA. The description is as above.
The subject of the next assay is SARS-CoV-2 5_SL5b+c RNA. The description is as above.

The structures appear in SMILES notation. Some of the results follow. For part of these data: Many values rest on one well or one pass, so single values are uncertain.

Turning to `CN(C(=O)C1CC1(C)C)c1cccnc1` (stereo not given), the NMR binding call with SARS-CoV-2 3'-UTR RNA, with SARS-CoV-2 3_SL1 RNA, in the assay on SARS-CoV-2 3_SL1+2 RNA, in the assay on SARS-CoV-2 3_SL2 RNA, in the assay with SARS-CoV-2 3_SL3base RNA and in the assay with SARS-CoV-2 3_s2m RNA was 0 in each case.

Turning to `NC(=O)c1ccc(NC(=O)c2ccccc2)cc1`, the NMR binding call in the assay on SARS-CoV-2 3'-UTR RNA, in the assay on SARS-CoV-2 3_SL1 RNA, with SARS-CoV-2 3_SL1+2 RNA, in the assay with SARS-CoV-2 3_SL2 RNA, in the assay on SARS-CoV-2 3_SL3base RNA and with SARS-CoV-2 3_s2m RNA was 0 in each case.

Regarding `CCN(CCO)c1ccc(N)cc1`, the NMR binding call in the assay on SARS-CoV-2 3'-UTR RNA, in the assay on SARS-CoV-2 3_SL1 RNA, with SARS-CoV-2 3_SL1+2 RNA, with SARS-CoV-2 3_SL2 RNA, in the assay on SARS-CoV-2 3_SL3base RNA and in the assay on SARS-CoV-2 3_s2m RNA was 0 throughout.

Consider `CC(C)c1ccc(C(=O)Nc2nncs2)cc1`, for which the T2 signal reduction in the assay with SARS-CoV-2 5_SL5 RNA was determined as 0.53. The NMR binding call in the assay with SARS-CoV-2 3'-UTR RNA came to 1; with SARS-CoV-2 3_SL1 RNA it was 0; in the assay with SARS-CoV-2 3_SL1+2 RNA, 0; in the assay on SARS-CoV-2 3_SL2 RNA, 0; in the assay on SARS-CoV-2 3_SL3base RNA it was 0; in the assay on SARS-CoV-2 3_s2m RNA, 0.

For `CCN(C)C(=O)c1cccc(N)c1`, the T2 signal reduction with SARS-CoV-2 5_SL8 RNA worked out at 0.38. Besides, the NMR binding call with SARS-CoV-2 3'-UTR RNA, with SARS-CoV-2 3_SL1 RNA, with SARS-CoV-2 3_SL1+2 RNA, with SARS-CoV-2 3_SL2 RNA, in the assay with SARS-CoV-2 3_SL3base RNA and in the assay on SARS-CoV-2 3_s2m RNA was 0 in each case.

Turning to `Cc1ccccc1OCC(=O)Nc1ccccc1`, the T2 signal reduction in the assay with SARS-CoV-2 5_SL5 RNA is 0.39; in [1] it was 0.26. The NMR binding call with SARS-CoV-2 3'-UTR RNA is 1; in the assay with SARS-CoV-2 3_SL1 RNA, 0; in the assay on SARS-CoV-2 3_SL1+2 RNA, 0; in the assay on SARS-CoV-2 3_SL2 RNA, 0; in the assay on SARS-CoV-2 3_SL3base RNA, 0; in the assay with SARS-CoV-2 3_s2m RNA, 0.

For `CCn1cc(C(=O)NCc2ccc(F)cc2)cn1`, the NMR binding call in the assay on SARS-CoV-2 3'-UTR RNA, in the assay with SARS-CoV-2 3_SL1 RNA, in the assay on SARS-CoV-2 3_SL1+2 RNA, in the assay on SARS-CoV-2 3_SL2 RNA, with SARS-CoV-2 3_SL3base RNA and in the assay on SARS-CoV-2 3_s2m RNA was 0 throughout.

For `CC(CO)N(C)c1ncc(Cl)cn1` (stereo not given), the NMR binding call in the assay on SARS-CoV-2 3'-UTR RNA, with SARS-CoV-2 3_SL1 RNA, in the assay on SARS-CoV-2 3_SL1+2 RNA, in the assay on SARS-CoV-2 3_SL2 RNA, with SARS-CoV-2 3_SL3base RNA and with SARS-CoV-2 3_s2m RNA was 0 throughout.

As for `c1ccc(-c2ccc(-n3cnnn3)cc2)cc1`, the T2 signal reduction in the assay on SARS-CoV-2 5_SL6 RNA came out at 0.39; with SARS-CoV-2 5_SL7 RNA, 0.32; in [1] it was 0.6. For the same molecule, the NMR binding call with SARS-CoV-2 3'-UTR RNA, in the assay on SARS-CoV-2 3_SL1 RNA, in the assay on SARS-CoV-2 3_SL1+2 RNA, in the assay on SARS-CoV-2 3_SL2 RNA, with SARS-CoV-2 3_SL3base RNA and with SARS-CoV-2 3_s2m RNA was 0 in each case.

`Cc1cc(N2CCNCC2)nc(C)n1` had a T2 signal reduction with SARS-CoV-2 5'-UTR RNA of 0.7. Besides, the NMR binding call in the assay on SARS-CoV-2 3'-UTR RNA, in the assay on SARS-CoV-2 3_SL1 RNA, with SARS-CoV-2 3_SL2 RNA, with SARS-CoV-2 3_SL3base RNA and in the assay with SARS-CoV-2 3_s2m RNA was 0 throughout.

Regarding `CN(C)c1ccc(C(=O)Nc2ccncc2)cc1`, the T2 signal reduction with SARS-CoV-2 5_SL1234 RNA was -0.95; with SARS-CoV-2 5_SL4 RNA, 0.86; in the assay on SARS-CoV-2 5_SL5b+c RNA, 0.91; in the assay with SARS-CoV-2 5_SL7 RNA it was 0.87; in the assay on SARS-CoV-2 5_SL8 RNA, 1. Also, the NMR binding call in the assay with SARS-CoV-2 3'-UTR RNA is 0; with SARS-CoV-2 3_SL1 RNA, 1; in the assay with SARS-CoV-2 3_SL2 RNA it was 1; in the assay with SARS-CoV-2 3_SL3base RNA it was 0.

With `CCOc1ccc(C(C)N)cc1.Cl` (stereo not given), the NMR binding call in the assay with SARS-CoV-2 3'-UTR RNA, with SARS-CoV-2 3_SL1 RNA, with SARS-CoV-2 3_SL1+2 RNA, with SARS-CoV-2 3_SL2 RNA, in the assay with SARS-CoV-2 3_SL3base RNA and in the assay with SARS-CoV-2 3_s2m RNA was 0 in each case.

As for `CC(C)c1ccc(C(=O)Nc2ccccn2)cc1`, the NMR binding call with SARS-CoV-2 3'-UTR RNA, in the assay with SARS-CoV-2 3_SL1 RNA, in the assay on SARS-CoV-2 3_SL1+2 RNA, in the assay on SARS-CoV-2 3_SL2 RNA and in the assay with SARS-CoV-2 3_SL3base RNA was 0 in each case.

Turning to `Cl.NC1CCCN(C(=O)CCC(F)(F)F)C1` (stereo not given), the NMR binding call in the assay on SARS-CoV-2 3'-UTR RNA, with SARS-CoV-2 3_SL1 RNA, with SARS-CoV-2 3_SL1+2 RNA, in the assay on SARS-CoV-2 3_SL2 RNA, with SARS-CoV-2 3_SL3base RNA and in the assay with SARS-CoV-2 3_s2m RNA was 0 throughout.

Consider `CC(C)C(N)C(=O)N1CCOCC1` (stereo not given), for which the NMR binding call in the assay with SARS-CoV-2 3'-UTR RNA, with SARS-CoV-2 3_SL1 RNA, with SARS-CoV-2 3_SL1+2 RNA, in the assay with SARS-CoV-2 3_SL2 RNA, in the assay with SARS-CoV-2 3_SL3base RNA and in the assay on SARS-CoV-2 3_s2m RNA was 0 throughout.

Take `CC(C)C(=O)Nc1ccc(N2CCCCC2)cc1`: the NMR binding call in the assay with SARS-CoV-2 3'-UTR RNA, with SARS-CoV-2 3_SL1 RNA, in the assay on SARS-CoV-2 3_SL1+2 RNA, in the assay on SARS-CoV-2 3_SL2 RNA, in the assay on SARS-CoV-2 3_SL3base RNA and in the assay on SARS-CoV-2 3_s2m RNA was 0 each time.
